From publication PMC8019017
Results are given in words; binding and its absence hold for the method and conditions named. Binding seen in cells or lysates may run through a third protein. A result given as binding can be weak or reduced; the word gives no strength. Where a sequence is shown, tags or fusion partners need not be part of it.

Chains of the proteins cited; added tags and fusions are not shown. Lines headed by an entry give the natural chain unless they say otherwise; changes in a name come on top.
UniProt Q14703: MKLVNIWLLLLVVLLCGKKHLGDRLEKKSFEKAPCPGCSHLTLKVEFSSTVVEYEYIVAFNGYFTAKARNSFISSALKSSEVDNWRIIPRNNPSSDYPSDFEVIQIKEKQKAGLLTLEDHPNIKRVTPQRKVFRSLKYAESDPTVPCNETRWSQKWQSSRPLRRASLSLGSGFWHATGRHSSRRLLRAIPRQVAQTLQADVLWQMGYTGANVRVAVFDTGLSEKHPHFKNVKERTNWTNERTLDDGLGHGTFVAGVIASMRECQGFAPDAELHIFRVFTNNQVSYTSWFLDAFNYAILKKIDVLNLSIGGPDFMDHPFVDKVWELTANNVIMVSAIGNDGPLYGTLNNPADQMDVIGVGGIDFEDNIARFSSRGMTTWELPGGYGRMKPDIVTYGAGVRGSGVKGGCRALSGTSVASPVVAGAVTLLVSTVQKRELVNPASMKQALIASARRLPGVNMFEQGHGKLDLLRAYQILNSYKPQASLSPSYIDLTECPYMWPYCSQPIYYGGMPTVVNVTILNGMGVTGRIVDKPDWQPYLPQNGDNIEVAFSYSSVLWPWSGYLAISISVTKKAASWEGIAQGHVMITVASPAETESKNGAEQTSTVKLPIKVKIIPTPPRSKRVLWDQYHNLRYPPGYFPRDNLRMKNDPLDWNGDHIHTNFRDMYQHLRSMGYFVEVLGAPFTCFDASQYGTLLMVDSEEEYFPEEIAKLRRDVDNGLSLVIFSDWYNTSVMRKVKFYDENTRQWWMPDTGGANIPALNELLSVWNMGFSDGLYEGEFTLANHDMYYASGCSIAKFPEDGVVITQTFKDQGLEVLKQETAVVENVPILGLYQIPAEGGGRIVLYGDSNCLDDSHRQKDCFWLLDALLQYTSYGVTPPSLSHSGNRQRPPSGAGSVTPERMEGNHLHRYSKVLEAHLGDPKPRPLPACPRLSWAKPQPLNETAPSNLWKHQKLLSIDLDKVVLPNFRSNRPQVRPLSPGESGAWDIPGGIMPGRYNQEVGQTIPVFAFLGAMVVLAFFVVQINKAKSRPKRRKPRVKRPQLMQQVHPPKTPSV

Biological target: T1, partner of site-1 protease (POST1) with a 3×Flag tag (human) (UniProt Q9H741)
T1 sequence: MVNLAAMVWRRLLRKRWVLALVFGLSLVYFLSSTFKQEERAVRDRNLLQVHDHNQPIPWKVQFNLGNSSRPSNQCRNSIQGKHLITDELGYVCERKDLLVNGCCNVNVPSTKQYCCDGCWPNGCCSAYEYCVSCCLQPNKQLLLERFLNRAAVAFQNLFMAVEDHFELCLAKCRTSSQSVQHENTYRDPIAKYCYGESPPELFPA
Assay: co-IP; HeLa cells transfected with pCMV-S1P-5×Myc and increasing amounts of pCMV-POST1-3×Flag for 48 h; precipitation with anti-Flag agarose

- binding: binds
Substance: site-1 protease (S1P) with a C-terminal 5×Myc tag (from UniProt Q14703) (enzyme)
